A short description of data set [1]: general procedure: Fmoc solid-phase peptide synthesis; HypoGel 200 RAM; HBTU; HATU for Aib residues and residues following Aib. The following applies: whole synthesis, scale 1 mmol.
A short description of data set [2]: general procedure: Fmoc solid-phase peptide synthesis; Rink amide resin (0.57 mmol/g); 2-chlorotrityl resin; HypoGel 200 RAM; HBTU; HATU for Aib residues and residues following Aib. The following applies: whole synthesis.

The substance “N^α-(3-(3H-imidazol-4-yl)-propionyl [Aib^22,35,Arg^26,34]GLP-1-(8-37))yl(N^ϵ-(3-(mPEGyl)propionyl)Lysinamide) wherein mPEGyl is polydisperse and has a molecular weight of approximately 2000 Da” yielded an isolated mass in data set [1] of 210 mg.
As for “N^α-[Aib^8,22,35]GLP-1-(7-36)yl(N^ϵ-(3-(mPEGyl)propionyl)Lysinamide) wherein mPEGyl is polydisperse and has a molecular weight of approximately 750 Da”, the “final HPLC purity” value in data set [2] (HPLC B1, scale of the general procedure 0.25 mmol) came to 98%.
On to “N^ϵ37-(3-(mPEGyl)propionyl)[Aib^8,22,35,Lys^37]GLP-1(7-37) amide wherein mPEGyl is polydisperse and has a molecular weight of approximately 2 kDa”, for which the “crude HPLC purity” value in data set [2] (HPLC B6, scale of the general procedure 0.25 mmol) was found to be 64%.

These data come from patent US9920106 (dated 2018).
